Measured values taken from publication PMC8913942.
Results are given in words; binding and its absence hold for the method and conditions named. Binding seen in cells or lysates may run through a third protein. Some binding calls cover weakened binding; strength is not graded here.

The chains behind the UniProt entries cited, without tags or fusion partners. Residues count along the entry.
UniProt Q04207: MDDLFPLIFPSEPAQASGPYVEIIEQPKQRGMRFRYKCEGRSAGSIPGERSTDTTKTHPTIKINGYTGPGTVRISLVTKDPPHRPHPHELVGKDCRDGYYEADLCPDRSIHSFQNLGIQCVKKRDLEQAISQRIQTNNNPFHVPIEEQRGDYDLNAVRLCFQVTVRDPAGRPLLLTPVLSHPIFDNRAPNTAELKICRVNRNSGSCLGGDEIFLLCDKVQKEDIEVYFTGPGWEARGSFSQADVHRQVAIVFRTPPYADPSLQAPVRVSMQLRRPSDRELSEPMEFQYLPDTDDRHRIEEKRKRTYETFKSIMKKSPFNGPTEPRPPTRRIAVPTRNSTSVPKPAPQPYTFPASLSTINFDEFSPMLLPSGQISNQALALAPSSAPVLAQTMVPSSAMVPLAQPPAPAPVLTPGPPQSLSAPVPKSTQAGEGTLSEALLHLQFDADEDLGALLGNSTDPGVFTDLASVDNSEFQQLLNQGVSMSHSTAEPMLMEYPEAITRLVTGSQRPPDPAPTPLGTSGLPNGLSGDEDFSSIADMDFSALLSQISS
UniProt Q01705, residues 19-2531: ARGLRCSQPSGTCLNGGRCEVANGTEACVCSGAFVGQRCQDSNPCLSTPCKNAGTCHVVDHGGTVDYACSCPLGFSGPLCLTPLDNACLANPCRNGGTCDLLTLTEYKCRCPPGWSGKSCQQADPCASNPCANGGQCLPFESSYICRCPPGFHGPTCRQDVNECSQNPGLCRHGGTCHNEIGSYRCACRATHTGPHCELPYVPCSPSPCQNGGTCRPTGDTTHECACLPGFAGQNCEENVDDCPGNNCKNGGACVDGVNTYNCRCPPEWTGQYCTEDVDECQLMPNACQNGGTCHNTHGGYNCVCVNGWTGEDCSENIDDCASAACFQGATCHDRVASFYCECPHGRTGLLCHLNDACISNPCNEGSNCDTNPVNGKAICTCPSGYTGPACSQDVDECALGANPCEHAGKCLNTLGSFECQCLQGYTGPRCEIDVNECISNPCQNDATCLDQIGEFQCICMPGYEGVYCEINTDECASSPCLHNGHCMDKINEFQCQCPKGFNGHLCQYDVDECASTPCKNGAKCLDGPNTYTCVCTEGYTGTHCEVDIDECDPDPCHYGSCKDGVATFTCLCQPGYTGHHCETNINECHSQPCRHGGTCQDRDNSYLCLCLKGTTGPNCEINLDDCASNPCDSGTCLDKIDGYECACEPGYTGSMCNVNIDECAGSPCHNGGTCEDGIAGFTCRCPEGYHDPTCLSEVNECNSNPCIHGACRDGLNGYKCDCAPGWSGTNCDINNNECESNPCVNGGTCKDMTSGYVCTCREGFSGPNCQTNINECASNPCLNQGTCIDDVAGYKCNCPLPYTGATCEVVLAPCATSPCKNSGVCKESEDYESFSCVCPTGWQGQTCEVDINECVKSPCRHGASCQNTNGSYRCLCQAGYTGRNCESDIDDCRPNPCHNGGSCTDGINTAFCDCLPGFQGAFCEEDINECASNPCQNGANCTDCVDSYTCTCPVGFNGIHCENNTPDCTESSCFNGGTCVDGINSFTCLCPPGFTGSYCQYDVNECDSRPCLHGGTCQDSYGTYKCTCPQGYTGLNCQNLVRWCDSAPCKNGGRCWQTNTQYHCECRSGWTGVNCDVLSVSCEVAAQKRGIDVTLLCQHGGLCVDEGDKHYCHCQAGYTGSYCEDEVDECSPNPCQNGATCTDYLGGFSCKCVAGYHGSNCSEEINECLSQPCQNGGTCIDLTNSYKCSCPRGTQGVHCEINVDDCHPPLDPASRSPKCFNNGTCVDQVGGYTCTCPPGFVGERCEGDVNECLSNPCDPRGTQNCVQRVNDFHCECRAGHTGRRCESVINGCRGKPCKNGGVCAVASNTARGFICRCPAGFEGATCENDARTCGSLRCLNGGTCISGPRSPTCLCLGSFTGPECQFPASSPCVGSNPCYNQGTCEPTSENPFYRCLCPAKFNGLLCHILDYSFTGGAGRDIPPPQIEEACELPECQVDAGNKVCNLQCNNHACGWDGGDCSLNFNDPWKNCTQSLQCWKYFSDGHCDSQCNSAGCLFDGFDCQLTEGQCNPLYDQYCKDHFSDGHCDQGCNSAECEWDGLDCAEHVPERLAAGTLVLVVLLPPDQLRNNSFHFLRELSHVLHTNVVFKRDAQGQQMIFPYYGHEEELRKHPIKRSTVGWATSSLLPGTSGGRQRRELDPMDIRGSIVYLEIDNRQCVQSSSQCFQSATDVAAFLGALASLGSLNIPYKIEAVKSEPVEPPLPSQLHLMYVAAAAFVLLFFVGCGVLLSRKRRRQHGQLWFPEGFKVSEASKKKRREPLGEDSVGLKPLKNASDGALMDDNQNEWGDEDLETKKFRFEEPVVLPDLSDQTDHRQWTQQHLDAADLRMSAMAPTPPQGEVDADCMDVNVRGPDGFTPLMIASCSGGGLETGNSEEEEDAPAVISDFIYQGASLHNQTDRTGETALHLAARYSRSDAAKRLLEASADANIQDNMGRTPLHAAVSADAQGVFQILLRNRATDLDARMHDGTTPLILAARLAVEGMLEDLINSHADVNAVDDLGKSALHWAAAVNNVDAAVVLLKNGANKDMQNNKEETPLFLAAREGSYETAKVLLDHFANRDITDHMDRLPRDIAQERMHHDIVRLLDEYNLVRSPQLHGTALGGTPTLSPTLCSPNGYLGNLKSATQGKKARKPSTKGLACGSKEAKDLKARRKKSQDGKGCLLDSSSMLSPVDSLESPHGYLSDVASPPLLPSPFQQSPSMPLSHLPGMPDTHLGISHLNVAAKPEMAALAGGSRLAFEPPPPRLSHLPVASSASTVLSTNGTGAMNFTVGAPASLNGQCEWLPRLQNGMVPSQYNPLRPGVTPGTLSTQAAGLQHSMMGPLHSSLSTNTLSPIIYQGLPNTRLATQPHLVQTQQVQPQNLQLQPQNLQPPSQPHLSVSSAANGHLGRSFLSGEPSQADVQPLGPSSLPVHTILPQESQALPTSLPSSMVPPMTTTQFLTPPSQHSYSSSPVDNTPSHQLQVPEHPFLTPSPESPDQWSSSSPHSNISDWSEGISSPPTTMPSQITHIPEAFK

Legend:
[1] = target: NF-κB p65 (mouse (endogenous in RAW264.7)) (UniProt Q04207); assay: co-IP; reciprocal co-IP from RIPA lysate (200 μg total protein) with 1 μg specific antibody overnight at 4°C, protein A+G agarose beads 3 hours at 4°C, five washes with lysis buffer, immunoblot; cells also with Notch1 knockdown or NICD overexpression
[2] = target: Notch1 (mouse (endogenous in RAW264.7)) (UniProt Q01705); assay: as above

binding [1]	binding [2]	Substance
binds		Notch1 (from UniProt Q01705 19-2531) (receptor)
	binds	NF-κB p65 (from UniProt Q04207 1-549)
